Assay results taken from patent US20220204643A1.
Like-named read-outs stand apart in the source and are kept apart here. These are yes or no findings as the source states them, for the method shown. Some entries that bind do so weakly or less than the wild type. Each block holds one binder with its values, some of them ahead of it.

The chains behind the UniProt entries cited, without tags or fusion partners. Where a name states a change or a piece, a line headed by the entry shows the natural chain unless it says otherwise.
UniProt Q2MKA7: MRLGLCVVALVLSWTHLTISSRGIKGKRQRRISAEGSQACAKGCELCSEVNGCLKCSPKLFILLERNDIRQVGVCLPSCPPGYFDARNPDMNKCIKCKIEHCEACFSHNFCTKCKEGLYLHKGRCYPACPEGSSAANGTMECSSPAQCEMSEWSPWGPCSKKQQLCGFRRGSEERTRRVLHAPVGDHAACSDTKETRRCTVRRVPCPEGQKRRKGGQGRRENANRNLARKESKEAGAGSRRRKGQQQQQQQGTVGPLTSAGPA
UniProt P19793: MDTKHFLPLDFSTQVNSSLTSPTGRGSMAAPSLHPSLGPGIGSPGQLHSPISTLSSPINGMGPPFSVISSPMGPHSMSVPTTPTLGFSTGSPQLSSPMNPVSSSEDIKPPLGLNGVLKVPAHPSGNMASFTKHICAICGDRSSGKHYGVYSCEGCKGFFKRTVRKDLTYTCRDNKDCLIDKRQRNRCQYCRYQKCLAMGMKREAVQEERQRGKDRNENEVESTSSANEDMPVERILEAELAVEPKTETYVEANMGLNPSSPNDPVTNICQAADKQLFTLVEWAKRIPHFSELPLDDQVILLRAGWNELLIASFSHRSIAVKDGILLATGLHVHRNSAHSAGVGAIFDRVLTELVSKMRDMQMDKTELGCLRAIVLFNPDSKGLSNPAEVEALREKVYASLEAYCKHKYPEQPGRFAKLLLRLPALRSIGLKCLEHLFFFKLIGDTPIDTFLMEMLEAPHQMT
UniProt Q00722: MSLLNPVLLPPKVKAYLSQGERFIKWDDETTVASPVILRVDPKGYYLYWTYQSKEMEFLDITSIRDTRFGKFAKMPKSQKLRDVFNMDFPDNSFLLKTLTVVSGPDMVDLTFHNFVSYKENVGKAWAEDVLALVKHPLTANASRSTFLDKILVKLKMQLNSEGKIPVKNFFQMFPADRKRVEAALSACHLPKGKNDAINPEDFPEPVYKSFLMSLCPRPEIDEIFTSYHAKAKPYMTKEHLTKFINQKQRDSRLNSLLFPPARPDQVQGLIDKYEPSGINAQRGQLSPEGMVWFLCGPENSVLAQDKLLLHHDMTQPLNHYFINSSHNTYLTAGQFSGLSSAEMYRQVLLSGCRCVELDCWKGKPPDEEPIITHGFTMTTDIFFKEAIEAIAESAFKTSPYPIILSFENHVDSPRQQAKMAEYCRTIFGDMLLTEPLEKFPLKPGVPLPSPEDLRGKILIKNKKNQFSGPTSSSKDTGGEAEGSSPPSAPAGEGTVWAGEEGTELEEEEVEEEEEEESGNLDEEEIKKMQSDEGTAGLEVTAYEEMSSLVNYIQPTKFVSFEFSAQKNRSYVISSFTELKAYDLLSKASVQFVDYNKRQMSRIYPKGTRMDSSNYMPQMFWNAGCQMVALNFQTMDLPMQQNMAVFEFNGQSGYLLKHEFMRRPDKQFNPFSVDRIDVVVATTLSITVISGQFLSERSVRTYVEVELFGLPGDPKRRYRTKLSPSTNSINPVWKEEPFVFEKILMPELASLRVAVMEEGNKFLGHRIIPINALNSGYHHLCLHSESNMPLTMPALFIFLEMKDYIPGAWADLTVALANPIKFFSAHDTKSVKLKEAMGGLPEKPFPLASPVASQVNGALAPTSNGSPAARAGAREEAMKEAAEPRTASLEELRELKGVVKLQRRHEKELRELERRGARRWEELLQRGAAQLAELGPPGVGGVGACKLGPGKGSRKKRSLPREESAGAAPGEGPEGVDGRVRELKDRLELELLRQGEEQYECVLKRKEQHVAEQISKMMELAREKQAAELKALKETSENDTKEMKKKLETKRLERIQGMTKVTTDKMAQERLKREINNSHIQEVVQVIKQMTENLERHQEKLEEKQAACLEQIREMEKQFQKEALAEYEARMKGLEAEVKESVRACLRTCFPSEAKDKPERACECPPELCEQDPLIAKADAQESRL

Columns and labels:
[1] = biological target: T1, zinc finger protein 287, transcript variant 2 (human) (UniProt Q9HBT7); assay: protein array
T1 sequence: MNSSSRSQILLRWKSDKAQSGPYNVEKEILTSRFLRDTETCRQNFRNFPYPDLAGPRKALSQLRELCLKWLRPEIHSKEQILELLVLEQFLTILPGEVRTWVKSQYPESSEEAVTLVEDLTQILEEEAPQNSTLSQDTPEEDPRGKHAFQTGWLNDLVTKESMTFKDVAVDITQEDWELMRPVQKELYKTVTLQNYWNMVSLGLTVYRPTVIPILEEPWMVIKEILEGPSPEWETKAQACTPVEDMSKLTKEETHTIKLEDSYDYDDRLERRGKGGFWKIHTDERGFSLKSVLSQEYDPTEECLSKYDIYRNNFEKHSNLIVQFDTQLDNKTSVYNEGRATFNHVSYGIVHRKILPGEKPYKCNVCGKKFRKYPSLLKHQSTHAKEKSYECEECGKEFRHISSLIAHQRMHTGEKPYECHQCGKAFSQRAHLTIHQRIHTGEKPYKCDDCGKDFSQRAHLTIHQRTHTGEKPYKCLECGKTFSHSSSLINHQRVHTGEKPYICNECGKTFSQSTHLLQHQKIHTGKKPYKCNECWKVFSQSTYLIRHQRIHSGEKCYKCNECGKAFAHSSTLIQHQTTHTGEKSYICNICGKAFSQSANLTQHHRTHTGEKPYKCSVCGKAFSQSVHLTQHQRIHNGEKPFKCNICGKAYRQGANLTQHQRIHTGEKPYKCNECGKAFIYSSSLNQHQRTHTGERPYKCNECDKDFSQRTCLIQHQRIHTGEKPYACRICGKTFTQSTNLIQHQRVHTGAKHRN

[2] = biological target: T1, zinc finger protein 287, transcript variant 2 (human)
[3] = biological target: R-spondin 1, transcript variant 2 (human) (UniProt Q2MKA7); assay: protein array
[4] = biological target: R-spondin 1, transcript variant 2 (human) (UniProt Q2MKA7)
[5] = biological target: T2, transmembrane protein 154 (human) (UniProt Q6P9G4)
T2 sequence: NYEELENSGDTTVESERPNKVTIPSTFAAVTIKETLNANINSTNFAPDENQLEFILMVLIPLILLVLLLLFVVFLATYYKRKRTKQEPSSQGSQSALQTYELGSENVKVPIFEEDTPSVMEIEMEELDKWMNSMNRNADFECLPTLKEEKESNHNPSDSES

[6] = biological target: retinoid X receptor alpha, transcript variant 1 (human) (UniProt P19793); assay: protein array
[7] = biological target: T3, Wnt family member 9b (human) (UniProt O14905); assay: protein array
T3 sequence: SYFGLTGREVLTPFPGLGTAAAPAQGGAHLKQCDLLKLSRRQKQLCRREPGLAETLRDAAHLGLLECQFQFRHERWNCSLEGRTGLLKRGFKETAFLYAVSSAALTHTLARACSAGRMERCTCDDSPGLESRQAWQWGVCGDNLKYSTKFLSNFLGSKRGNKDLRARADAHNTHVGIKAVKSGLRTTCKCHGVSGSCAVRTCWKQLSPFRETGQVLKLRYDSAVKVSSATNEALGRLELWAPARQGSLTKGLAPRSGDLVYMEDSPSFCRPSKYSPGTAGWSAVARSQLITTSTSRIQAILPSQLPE

[8] = biological target: T3, Wnt family member 9b (human)
[9] = biological target: ELK2, member of ETS oncogene family, pseudogene 1 (human) [IgG part: P01859]; assay: protein array
[10] = biological target: ELK2, member of ETS oncogene family, pseudogene 1 (human) [IgG part: P01859]
[11] = biological target: phospholipase C beta 2, transcript variant 4 (human) (UniProt Q00722); assay: protein array
[12] = biological target: T4, t-complex 11 like 2, transcript variant X2 (human) (UniProt Q8N4U5); assay: protein array
T4 sequence: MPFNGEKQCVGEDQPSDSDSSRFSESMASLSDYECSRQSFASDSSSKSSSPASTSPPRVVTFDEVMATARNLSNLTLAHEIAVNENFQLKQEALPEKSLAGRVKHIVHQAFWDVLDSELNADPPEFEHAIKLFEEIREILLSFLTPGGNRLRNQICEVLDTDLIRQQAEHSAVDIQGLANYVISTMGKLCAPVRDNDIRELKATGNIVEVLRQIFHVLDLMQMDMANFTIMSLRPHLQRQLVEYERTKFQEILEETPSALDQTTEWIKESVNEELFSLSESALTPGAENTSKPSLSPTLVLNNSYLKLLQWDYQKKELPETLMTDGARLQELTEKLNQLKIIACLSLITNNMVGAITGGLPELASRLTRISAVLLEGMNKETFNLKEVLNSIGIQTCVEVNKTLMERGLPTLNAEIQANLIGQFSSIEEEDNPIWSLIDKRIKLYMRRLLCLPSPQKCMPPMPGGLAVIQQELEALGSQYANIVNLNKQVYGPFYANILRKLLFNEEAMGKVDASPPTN

[13] = biological target: T5, neutrophil cytosolic factor 4, transcript variant 2 (human); assay: protein array
T5 sequence: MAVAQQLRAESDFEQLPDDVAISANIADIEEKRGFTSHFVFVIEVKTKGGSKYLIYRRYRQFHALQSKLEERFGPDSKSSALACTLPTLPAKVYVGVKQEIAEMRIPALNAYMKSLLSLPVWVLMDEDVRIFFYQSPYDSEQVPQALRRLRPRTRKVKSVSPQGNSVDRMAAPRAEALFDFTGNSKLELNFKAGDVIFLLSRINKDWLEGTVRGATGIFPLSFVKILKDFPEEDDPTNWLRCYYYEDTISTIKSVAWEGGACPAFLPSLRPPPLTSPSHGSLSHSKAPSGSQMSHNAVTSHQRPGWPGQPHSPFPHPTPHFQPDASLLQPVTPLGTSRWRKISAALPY

[14] = biological target: T5, neutrophil cytosolic factor 4, transcript variant 2 (human)
[15] = biological target: phospholipase C beta 2, transcript variant 4 (human) (UniProt Q00722)
[16] = biological target: T4, t-complex 11 like 2, transcript variant X2 (human)
[17] = biological target: T6, serine and arginine rich splicing factor 3, transcript variant 1 (human) (UniProt P84103); assay: protein array
T6 sequence: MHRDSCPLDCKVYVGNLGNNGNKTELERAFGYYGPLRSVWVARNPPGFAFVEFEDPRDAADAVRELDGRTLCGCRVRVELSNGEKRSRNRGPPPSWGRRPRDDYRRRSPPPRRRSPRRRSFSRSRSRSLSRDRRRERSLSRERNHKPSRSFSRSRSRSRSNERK

[18] = biological target: T6, serine and arginine rich splicing factor 3, transcript variant 1 (human)
[19] = biological target: T7, hyaluronan binding protein 4 (human) (UniProt Q5JVS0); assay: protein array
T7 sequence: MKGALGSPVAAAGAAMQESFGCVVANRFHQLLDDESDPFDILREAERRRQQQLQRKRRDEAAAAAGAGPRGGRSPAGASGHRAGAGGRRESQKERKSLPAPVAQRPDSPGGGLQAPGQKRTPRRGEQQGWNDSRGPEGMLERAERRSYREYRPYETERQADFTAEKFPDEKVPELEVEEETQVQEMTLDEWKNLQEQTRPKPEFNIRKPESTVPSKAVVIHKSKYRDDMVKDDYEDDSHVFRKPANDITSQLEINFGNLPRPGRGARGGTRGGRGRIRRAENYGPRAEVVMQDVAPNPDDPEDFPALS

[20] = biological target: T7, hyaluronan binding protein 4 (human)

binding [1]: binds | binding [2]: binds
B1: TLUA1008 (antibody, V domains shown)
VH: EVHLVESGGGFVQPGGSLRLSCAASGFTFSDHYMDWVRQAPGKGLEWVGRIKNRANSYNTEYAASVRGRFTISRDDSNNSLFLQMNSLTAEDTAVYYCARVKLGASSRVFDVWGQGTMVTVSS
VL: EIVLTQSPGTLSLSPGERATLSCRASQSLSSGYLAWYQQKPGQAPRLLIYGASYRATDIPDRFSGSGSGTDFTLTISRLEPEDFAVYYCQQYDNSPLTFGGGTKVEIKR

binding [3]: binds | binding [4]: binds
B2: TBLA1001 (antibody, V domains shown)
VH: EMQLLQSGGGLVQPGGSLRLSCVASEVTFNTYGMSWVRQAPGKGLEWVSYMSGGGGSIFYADSVKGRFTISRDNSKNTLYLQMNSLRGEDTAVYFCARVTLGSYFYGMDVWGQGTTVTVSS
VL: DIQMTQSPSSLSASVGDRVSITCRASQGVSSYLAWYQKKPGRAPKLLIYSASSLQSGVPSRFSGSGSGTDFTLTITGLQPEDFATYFCQQTNTFPLTFGGGTKVEIKR

binding [5]: binds
B3: TBLA1005 (antibody, V domains shown)
VH: QVQLVQSGAEVKKPGASVKISCKTSGYTFTTYYMHWVRQAPGQGLEWMGIINTSGGSTSYAQKFQGRVTMTRDTSTNTVYMELSSLRYEDTAMYYCARGGDGGPQDAFDIWGQGTKVTVSS
VL: SSELTQDPAVSVALGQTVRITCQGDSLRNYYASWFQQKPGQAPVLVIFGKNYRPSGIPDRFSGSNSGNTASLTITGAQAEDEADYYCNSRDRSGYVFGSGTKVTVLG

binding [6]: binds
B4: TBLA1004 (antibody, V domains shown)
VH: QITLKESGPTLVKPTQTLTLTCTFSGFSLSTSGVGVGWIRQPPGKALEWLALIYWDDDKRYSPSLKSRLTITKDTSKNQVVLTMTNMDPVDTATYYCAHRAIVGLFDYWGQGTLVTVSS
VL: PSVLTQPPSASGTPGQRVTISCSGSSSNIGSNYVYWYQQLPGTAPKFLIYRNNQRPSGVPDRFSGSKSGTSASLAISGLRSEDEADYYCAAWEDSLSGPVFGGGTKLTVL

binding [7]: binds | binding [8]: binds
B5: TMEL1017 (antibody, V domains shown)
VH: EVQLVESGGGLVKPGGSLRLSCAASGFTFSNYNMNWVRQAPGKGLEWVSSISSSSSYIYYADSVKGRFTISRDNAKNSLYLQMNSLRAEDTAVYYCARDALDFDWLLSAGGFDYWGQGTLVTVSS
VL: ASALTQPASVSGSPGQSITISCTGTSSDVGGYNYVSWYQQHPGKAPKLMIYEVSNRPSGVSNRFSGSKSGNTASLTISGLQAEDEADYYCSSYTSSSTLVFGGGTKLTVLG

binding [9]: binds | binding [10]: binds
B6: TLUS1003 (antibody, V domains shown)
VH: QVHLVQSGSEFKKPGASVKISCKTSGYTFTNYAMNWVRQAPGQGLEWVGWINTVTGIPGYAQGFTGRFIISLDTSGRTSYLQINSLQAEDTAVYYCARSGGFGWSRDLDYWGQGTLVTVSS
VL: DIVLTQSPLSLPVTPGEPASISCRSSQSLLHSNGVYYLDWYLLKPGQSPQLVIYMGSSRASGVPDRFSGSGSGTDFRLKISRVEAEDVGIYYCMQALQTPWTFGQGTKVEIKR

binding [11]: binds | binding [12]: binds | binding [13]: binds | binding [14]: binds | binding [15]: binds | binding [16]: binds
B7: TMES1003 (antibody, V domains shown)
VH: VVQLLESGGGLVQPGGSLRLSCAASGFTFISYAMSWVRQAPGKGLEWVSDISGSGGSTYYADSVKGRLTISRDNSNNTLYLQMNSLRAEDTAVYYCAKEDGYTQNFDYWGQGTLVTVSS
VL: SYVLTQPPSVSVAPGKTARITCGGDNIGSRSVHWYQQKPGQAPVLVIYYDSDRPSGIPERFSGSNSGNTATLTISRVEAGDEADYYCQVWDSSSDHPWVFGGGTKLTVLR

binding [17]: binds | binding [18]: binds
B8: TMEL1022 (antibody, V domains shown)
VH: EVQLLESGGGLVHPGGSLRLSCVASGFTFSSYEMTWVRQAPGKGLEWISYISSTGTTTYHADSVRGRFTISRDNAKSSLFLQMNSLRVEDTALYYCARSPAAFGSESYFDSWGQGVLVTVSS
VL: SYVLTQPPSVSVAPGKTATIACGENNIGSYNVNWYQQRPGQAPVLVIHSDSDRPSGISERFSGSNSGNTATLTISRVEAGDEADYYCQVWDTSNDVGVFGGGTKLTVLG

binding [19]: binds | binding [20]: binds
B9: TBRE1004 (antibody, V domains shown)
VH: QVQLVQSGGEVKKPGASVKVSCKASGYNFTNYGISWVRQAPGQGLEWMGWISAYNGNTNYAQKLQGRVTMTTDTPTSTAYMELRSLRSDDTAVYYCARETAGQLIPFDYWGQGTLVTVSS
VL: PYELTQPPSVSVSPGQTARITCSGDALPKQYAYWYQQKPGQAPVLVIYKDSERPSGIPERFSGSSSGTTVTLTISGVQAEDEADYYCQSADSSDTYVFGGGTKLTVLG

binding [19]: binds | binding [20]: binds
B10: TBRE1032 (antibody, V domains shown)
VH: EVQLVESGGGLVQPGGSLRLSCAASGFTFSSYDFHWVRQPTGKGLEWVSAIGTAGDTLYLDSVKGRFTISRENAKNSLYLQMNSLRAGDTAVYYCARVNWNSDTFDSWGQGTLVTVSS
VL: VSSELTQDPAVSVALGQTVRITCQGDSLRRYYASWYQQKAGQAPILVIYGENNRPSGIPDRFSGSGSGNTASLTITGAQAEDEADYYCDSRDSSGNLVVFGGGTKLTVL
